Columns and labels:
BSA = molecular target: T1, BSA (bovine, UniProt P02769); assay: ELISA: BSA coated as control, fragment in solution, A450 (methods analogous to Example 3)
T1 construct: negative control; also called bovine serum albumin

Amino acid sequences for entries named in this document (tags omitted). Residues count along the entry.
UniProt P02769, 25-607 limits assumed: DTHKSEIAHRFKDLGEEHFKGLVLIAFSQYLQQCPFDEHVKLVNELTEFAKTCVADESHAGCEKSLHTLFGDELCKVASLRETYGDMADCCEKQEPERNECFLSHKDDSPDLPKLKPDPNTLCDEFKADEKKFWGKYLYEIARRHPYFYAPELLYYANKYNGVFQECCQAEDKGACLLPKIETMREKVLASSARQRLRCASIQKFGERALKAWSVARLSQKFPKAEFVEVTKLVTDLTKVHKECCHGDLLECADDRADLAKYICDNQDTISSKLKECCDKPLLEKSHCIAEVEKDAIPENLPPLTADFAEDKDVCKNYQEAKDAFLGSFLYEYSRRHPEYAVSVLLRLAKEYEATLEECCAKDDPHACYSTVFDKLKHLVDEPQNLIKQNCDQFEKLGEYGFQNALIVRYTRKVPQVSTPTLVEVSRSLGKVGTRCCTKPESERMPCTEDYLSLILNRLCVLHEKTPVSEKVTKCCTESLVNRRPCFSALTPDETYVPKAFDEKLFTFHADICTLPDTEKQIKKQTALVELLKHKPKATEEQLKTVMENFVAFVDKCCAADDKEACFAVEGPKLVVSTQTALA

EGF = assay: ELISA: morphogen coated, fragment in solution, A450 (methods analogous to Example 3)

B1: FN III9*-10-TNC III1-5 (other)
chain: NQEQVSPLAGGLDSPTGIDFSDITANSFTVHWIAPRATITGYRIRHHPEHFSGRPREDRVPHSRNSITLTNLTPGTEYVVSIVALNGREESPPLIGQQSTVSDVPRDLEVVAATPTSLLISWDAPAVTVRYYRITYGETGGNSPVQEFTVPGSKSTATISGLKPGVDYTITVYAVTGRGDSPASSKPISINYRTGGSEVSPPKDLVVTEVTEETVNLAWDNEMRVTEYLVVYTPTHEGGLEMQFRVPGDQTSTIIQELEPGVEYFIRVFAILENKKSIPVSARVATYLPAPEGLKFKSIKETSVEVEWDPLDIAFETWEIIFRNMNKEDEGEITKSLRRPETSYRQTGLAPGQEYEISLHIVKNNTRGPGLKRVTTTRLDAPSQIEVKDVTDTTALITWFKPLAEIDGIELTYGIKDVPGDRTTIDLTEDENQYSIGNLKPDTEYEVSLISRRGDMSSNPAKETFTTGLDAPRNLRRVSQTDNSITLEWRNGKAAIDSYRIKYAPISGGDHAEVDVPKSQQATTKTTLTGLRPGTEYGIGVSAVKEDKESNPATINAATELDTPKDLQVSETAETSLTLLWKTPLAKFDRYRLNYSLPTGQWVGVQLPRNTTSYVLRGLEPGQEYNVLLTAEKGRHKSKPARVKASTEQAGGGSHHHHHH
notes: The two are tied by name only; also called TG-FN III9*-10, TNC III1-5
**Q.** Does B1 bind (BSA)?
**A.** no binding

**Q.** Does B1 bind (EGF)?
**A.** no binding

Source: patent publication US20140011978A1 (EPFL TTO, published 2014)
